Values quoted from earlier work, collected in paper PMC7795492, “Protein Sensing Device with Multi-Recognition Ability Composed of Self-Organized Glycopeptide Bundle” (International Journal of Molecular Sciences, 2020).

Conditions: cited from earlier work; for Channel formation / conformation: lipid bilayer membrane

## -(Leu-Ser-Leu-Leu-Ser-Ser-Leu)3- [channel forming element reported by DeGrado et al]
Channel consisting of a hexamer bundle
  Channel diameter: ca. 4 nm
  Channel formation / conformation: formed the ion channel
Listed as (Leu-Ser-Leu-Leu-Ser-Ser-Leu)3
  Channel formation / conformation: had an amphiphilic α-helix conformation and formed a channel in the lipid bilayer membrane

Read-outs that look alike come from different tables or passages of the source.
